The target in this experiment is rat ROR1-His (Cat. #RO1-R5221, Acro) antigen (rat) (UniProt D3ZZ97). Briefly: SPR (Biacore T200).

Sequences of proteins named here, by UniProt entry; tags and fusion partners are left off. A change or cut given only in a name is not applied to a line headed by its entry. A line that says so, or that is headed by a name, gives the form on record, which may keep a tag or linker.
rat ROR1-His (Cat. #RO1-R5221, Acro) antigen (D3ZZ97, form named): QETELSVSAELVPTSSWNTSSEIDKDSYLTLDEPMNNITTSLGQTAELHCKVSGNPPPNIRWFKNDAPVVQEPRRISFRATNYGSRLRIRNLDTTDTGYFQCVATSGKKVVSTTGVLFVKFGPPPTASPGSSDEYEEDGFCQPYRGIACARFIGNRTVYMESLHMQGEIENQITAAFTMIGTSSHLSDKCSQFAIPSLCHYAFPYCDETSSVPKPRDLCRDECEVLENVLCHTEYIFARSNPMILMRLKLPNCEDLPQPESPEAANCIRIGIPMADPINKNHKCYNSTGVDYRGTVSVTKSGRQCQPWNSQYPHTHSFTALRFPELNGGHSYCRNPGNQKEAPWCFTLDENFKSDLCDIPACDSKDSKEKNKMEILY

Results are given in words; binding and its absence hold for the method and conditions named. Some results given as binding are weak or reduced against the parent protein; the word gives no strength.

B1: fully human ROR1 antibody 347 (antibody, human IgG1, kappa, V domains shown)
VH: QVQLVQSGAEVKKPGSSVKVSCKASGYTFTDYYISWVRQGPGQGLEWMGGINAGNGNTNYAQKFQGRVTITADESTSTAYMELSSLRSEDTAVYYCASPGWDVFDIWGQGTMVTVSS
VL: DIQMTQSPSPLSASVGDRVTITCQASQDISNYLNWYQQKPGKAPKLLIYDASNLETGVPSRFSGSGSGTDFTFTISSLQPEDIATYYCQQHEDLPITFGQGTRLEIKR
notes: Full-length human IgG1/kappa
Consider B1, for which the binding result was “binds”.

The record behind these values is patent US20250121081A1 (JIANGSU HENGRUI PHARMACEUTICALS, published 2025).
